Reference: PubChem BioAssay AID2685 (National Center for Advancing Translational Sciences (NCATS), 2010)
This is one part of the list. The main result of the screen is listed elsewhere. These columns were measured beside it and carry no call. Compounds called inactive in the main read-out are mostly missing here. Words in brackets tell the shape of the fitted curve; partial curves, single points and poor fits give uncertain potencies.

Experiment: qHTS Assay for Lipid Storage Modulators in Drosophila S3 Cells;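 as to cell number change: cells counted by Cell Tracker Red CMTPX staining in the red channel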
Conditions: BODIPY lipid droplet fluorescence, 18-24 h; for cell number change: measured here: cell count max response, cells fed with added oleic acid
Method in brief: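 Drosophila S3 cells got compounds at several concentrations plus oleic acid (400 uM solution). Laser-scanning cytometry with 488 nm excitation read lipid droplets at 500-530 nm and cells at 575-640 nm. Percent activity was relative to 20 uM Triacsin C.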

[1] = measured here: lipid fluorescence (Fed channel) AC50, cells fed with added oleic acid
[2] = measured here: cell number channel AC50, cells fed with added oleic acid

Structure (SMILES) | AC50 [1] | cell number change | AC50 [2]
COc1ccc(NC(=O)COC(=O)[C@@H]2CCCN2C(=O)c2cccs2)cc1 | 23.1 µM [falling, partial curve] |  | 
Cc1nn(-c2ccccc2)c(Cl)c1C(=O)NNC(=O)c1ccccc1O | 18.4 µM [falling, partial curve, poor fit] | -11.5% | 
COc1ccc(C(=O)Nc2cc3c(cc2C(=O)O)OCCCO3)c(OC)c1 |  | -1.3% | 
NC(=O)C1CCN(C(=O)c2cc3ccccn3n2)CC1 | 0.0058 µM [falling, full curve, poor fit] | -41.5% | 29.1 µM [falling, single point]
Clc1ccc(Oc2nc(Oc3ccc(Cl)cc3)nc(N3CCOCC3)n2)cc1 | 6.51 µM [falling, partial curve] | -28.8% | 
CCOC(=O)c1[nH]c(C)c(C(=O)Nc2ccc(C)cc2C)c1C |  | -30.3% | 18.4 µM [falling, single point]
C=CCn1c(SC(C)C(=O)Nc2ccc(Cl)cn2)nnc1C1CC1 (stereo not drawn) |  | -21.3% | 
CC(C)C(=O)Nc1ccc2c(c1)Cc1cc(NC(=O)C(C)C)ccc1-2 | 0.00461 µM [rising, full curve, poor fit] | 29.3% | 
CC1Cc2ccccc2N1CC(=O)Nc1ccc2c(c1)OCO2 (stereo not drawn) | 2.06 µM [rising, partial curve] |  | 1.64 µM [rising, partial curve]
COc1ccc(Oc2coc3cc(O)ccc3c2=O)cc1 |  | -25.4% | 
O=C(c1ccccc1)N1CCN(c2n[nH]c(=O)[nH]c2=O)CC1 |  | -52.5% | 0.411 µM [falling, full curve]
Cc1ccc(S(=O)(=O)N(CC(=O)Nc2cccnc2)c2ccc(Br)cc2)cc1 | 3.66 µM [falling, single point] | -21.1% | 
CCOC(=O)c1cc(S(=O)(=O)N2CC(C)CC(C)C2)cn1C (stereo not drawn) |  | 64% | 29.1 µM [rising, single point]
O=C(COc1ccc(Cl)cc1Cl)NNC(=S)NCc1ccco1 | 0.731 µM [falling, full curve, poor fit] | -33.7% | 32.6 µM [falling, partial curve, poor fit]
CC1CCCC(NC(=O)c2ccc(CNc3c(N4CCCC4)c(=O)c3=O)cc2)C1C (stereo not drawn) | 6.51 µM [falling, single point] |  | 
COc1ccc(/C=C/C(=O)OCC(=O)Nc2ccc(N3CCOCC3)cc2)cc1 | 29.1 µM [rising, single point] | 31.6% | 
Clc1ccc(OCCCN2CCc3ccccc3C2)c(Br)c1 | 29.1 µM [falling, single point] | -40.7% | 13 µM [falling, single point]
COc1ccccc1N1C(=O)c2ccc(C(=O)Nc3nccs3)cc2C1=O | 29.1 µM [rising, partial curve, poor fit] | 58.9% | 8.2 µM [rising, partial curve, poor fit]
O=S(=O)(Nc1cccc(-n2cnnn2)c1)c1ccccc1F |  | -18.9% | 
COc1ccc2[nH]c(=O)c(CN(CCc3cccc(C)c3)C(C)=O)cc2c1 | 1.84 µM [falling, partial curve] | -12.1% | 

Structure (SMILES) | AC50 [1] | cell number change | AC50 [2]
COc1ccc(/C=C(\NC(=O)c2ccc(OCC(C)C)cc2)C(=O)OCc2ccco2)cc1 | 4.61 µM [falling, partial curve, poor fit] | -1.32% | 
NC(=O)c1ccc(NC(=O)Cc2ccc(S(=O)(=O)N3CCCCC3)cc2)cc1 | 10.3 µM [rising, partial curve] | 6.52% | 
O=c1cc2c(=O)oc3cc(O)c(O)oc3c2c(O)c1O | 4.11 µM [rising, single point] | -21.9% | 
CC1CN(S(=O)(=O)c2ccccc2)CC(C)O1 (stereo not drawn) | 2.06 µM [falling, full curve] | -5.03% | 
CC(=O)c1cc(-c2ccccc2)n(CC(=O)N2CCCC2)c1C | 32.6 µM [falling, partial curve, poor fit] | -23.1% | 
Cc1ccc(CNC(=O)[C@H](C)NC(=O)C2CCN(C(=O)[C@@H]3CCCN3C(=O)OC(C)(C)C)CC2)cc1 | 29.1 µM [falling, single point] | 1.27% | 
COc1ccc(-n2nc(C(=O)NCC(=O)NCC3COc4ccccc4O3)c3ccccc3c2=O)cc1OC (stereo not drawn) | 0.13 µM [falling, full curve, poor fit] |  | 
CCCCC(C(=O)NC(C)(C)C)N(Cc1ccco1)C(=O)c1snc(C(N)=O)c1N (stereo not drawn) |  | 20.4% | 1.64 µM [rising, full curve, poor fit]
CSc1ccc(S(=O)(=O)NCC(=O)OCC(=O)NCCc2ccccc2)cc1[N+](=O)[O-] | 3.66 µM [falling, full curve] | -30.8% | 29.1 µM [falling, single point]
CCCCC(=O)Nc1ncc(Br)s1 |  | 3.51% | 
Cc1ccc(C(=O)OCC(=O)Nc2ccc(F)c(Cl)c2)o1 |  | -18.6% | 
CC1CN(C(=O)c2ccn(C)n2)CC(C)O1 (stereo not drawn) | 0.731 µM [falling, full curve, poor fit] |  | 
O=C(O)Cc1ccc(NC(=O)c2cccs2)cc1 | 0.231 µM [falling, full curve] | -39.1% | 0.231 µM [falling, full curve, poor fit]
COc1cc(OC)cc(C(=O)Nc2ccccc2-c2nnn(CC(N)=O)n2)c1 | 23.1 µM [rising, single point] | 39.7% | 29.1 µM [rising, single point]
CN(CC(=O)Nc1ccccc1)CC(=O)Nc1ccc(F)cc1 |  | 30.5% | 13 µM [rising, single point]
CC(C)CC1C2C(=O)N(c3ccccc3)C(=O)C2ON1c1ccccc1 (stereo not drawn) | 0.517 µM [falling, full curve] | -11.5% | 
CCOC(=O)c1nn(-c2ccccc2C)c(=O)c2c(N)scc12 |  | 18.4% | 
O=C(NC1CCCC1)C1CCN(C(=O)c2ccccc2Cl)CC1 |  | 13.4% | 
CCC(C(=O)NC1CCCC1)N(C(=O)Cn1nnc(-c2ccc(C)o2)n1)c1ccc(F)cc1 (stereo not drawn) | 6.51 µM [falling, single point] | 18.1% | 

Eleven entries from above, ordered by number of heavy atoms, descending:
Structure (SMILES) | AC50 [1] | cell number change | AC50 [2]
COc1ccc(-n2nc(C(=O)NCC(=O)NCC3COc4ccccc4O3)c3ccccc3c2=O)cc1OC (stereo not drawn) | 0.13 µM [falling, full curve, poor fit] |  | 
Cc1ccc(CNC(=O)[C@H](C)NC(=O)C2CCN(C(=O)[C@@H]3CCCN3C(=O)OC(C)(C)C)CC2)cc1 | 29.1 µM [falling, single point] | 1.27% | 
CSc1ccc(S(=O)(=O)NCC(=O)OCC(=O)NCCc2ccccc2)cc1[N+](=O)[O-] | 3.66 µM [falling, full curve] | -30.8% | 29.1 µM [falling, single point]
CCCCC(C(=O)NC(C)(C)C)N(Cc1ccco1)C(=O)c1snc(C(N)=O)c1N (stereo not drawn) |  | 20.4% | 1.64 µM [rising, full curve, poor fit]
COc1cc(OC)cc(C(=O)Nc2ccccc2-c2nnn(CC(N)=O)n2)c1 | 23.1 µM [rising, single point] | 39.7% | 29.1 µM [rising, single point]
Cc1ccc(C(=O)OCC(=O)Nc2ccc(F)c(Cl)c2)o1 |  | -18.6% | 
O=c1cc2c(=O)oc3cc(O)c(O)oc3c2c(O)c1O | 4.11 µM [rising, single point] | -21.9% | 
O=C(O)Cc1ccc(NC(=O)c2cccs2)cc1 | 0.231 µM [falling, full curve] | -39.1% | 0.231 µM [falling, full curve, poor fit]
CC1CN(S(=O)(=O)c2ccccc2)CC(C)O1 (stereo not drawn) | 2.06 µM [falling, full curve] | -5.03% | 
CC1CN(C(=O)c2ccn(C)n2)CC(C)O1 (stereo not drawn) | 0.731 µM [falling, full curve, poor fit] |  | 
CCCCC(=O)Nc1ncc(Br)s1 |  | 3.51% | 
